The other results are listed elsewhere or left out. Repeats are few or missing, and single values can be far off.

The test system of the assay is Saccharomyces cerevisiae BY4743. The assay can be described thus: growth (OD600) relative to untreated control; higher = less growth inhibition. The settings on record: compound concentration: 133 uM; 20 h. How it is done: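 NMCCC compounds (133 uM, no IPBC) tested alone against Saccharomyces cerevisiae BY4743 in YPD, 96-well plates, starting OD600 ~0.1. Growth was read as OD600 at 20 h and expressed as % of the untreated control. Single pass.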
Turning to `CCNc1sc(S(C)(=O)=O)nc1S(=O)(=O)c1ccc(Cl)cc1`, the growth turned out to be 94%.
Next, `CCN1CCCC1CNC(=O)c1cnc(SC)nc1-c1ccccc1` (centres undefined): 112%.
Under `COC(=O)\C1=C\N(CC2=CC=CS2)\C=C(/C1C3=CC=CC=C3OC(C)C)C(=O)OC` stands 112%; under `CCOc1ccccc1C(=O)N(Cc1ccc(N(C)C)cc1)c1ccccn1`, 106%; under `CCOC(=O)Nc1cccc(C(=O)NCc2ccc(N3CCCC3=O)cc2)c1`, 107%.
Next, `COC1=CC=CC=C1C(=O)N\C2=C\N=C3\S\C=C/N3C2=O`: 97.7%; `Cc1ccccc1-c1nnc(SCC(=O)NCC2CCCO2)o1` (centres undefined): 100%.
Turning to `COC(=O)CNS(=O)(=O)c1ccc(NC(=O)c2cc3c(s2)CCCCCC3)cc1`, the growth came out at 97.6%.
Under `COC1=CC=C(C=C1OC)C(=O)N2CCN(CC2)C/3=C(\Cl)C(=O)N(C)/N=C3` stands 104%; under `CN(C1=CC=CC=C1)C(=O)\C2=C\C(=N/[S](=O)(=O)N2C)C3=CC=C(C)C=C3`, 103%; under `CCOC(=O)c1c(C)[nH]c(CN(Cc2ccc(C)cc2)S(=O)(=O)c2c(C)noc2C)c1C`, 108%.
As to `Cc1cccc(C)c1N1C(=O)N(CC(=O)NC(C)C)c2ccccc2S1(=O)=O`, the growth was 108%.
`CCOC(=O)C1=C(C)N=C(C)/C(=C(/O)OCC)C1c1ccc(C)o1` (centres undefined) displayed a growth of 101%.
Compound `NC(=O)c1ccc(CSc2nncn2CCc2cccs2)cc1` returned a growth of 104%.
Under `Cn1cccc1Cc1nnc(SCC(N)=O)n1-c1ccc(Cl)cc1` stands 93.2%.
Under `COc1ccc(Cl)cc1NC(=O)CSc1nccn1C1CCCC1` stands 96%.
Under `CCOC(=O)c1csc(NC(=O)c2ccc3c(c2)NC(=O)C(C)S3)n1` (centres undefined) stands 81.4%.
`CC1C2CC(CC(C)(C)C2)N1C/3=C(\Cl)C(=O)N(CC(O)=O)/N=C3` (centres undefined): the growth turned out to be 98.7%.
Next, `CCn1c(SCC(=O)N(C)CCOc2ccc(Br)cc2)nnc1C1CC1`: 104%; `CCCN1\C=C(/C(=O)C2=CC(=CC=C12)CC)[S](=O)(=O)C3=CC=C(OC)C=C3`: 105%.
Turning to `COC1=CC=CC(=C1)C/2=N/[S](=O)(=O)N(C)/C(=C2)C(=O)NC3=C[N](N=C3)C(C)C`, the growth worked out at 109%.
Under `CCn1nc(C)c(CNS(=O)(=O)c2ccc(C)cc2C)c1C` stands 99.3%.
For the compound `C1CCC(CC1)N\C2=N\N=C(/CS2)C3=CC=C[NH]3`, the growth was 83.6%.
Next, `CSc1nc(C)c(CCC(=O)OCc2cn3cc(Cl)ccc3n2)c(C)n1`: 106%.
Under `CC(=O)ON1C(C)(C)Cc2noc(N)c2C1(C)C` stands 97.6%; under `CCC(C)Nc1nc2c(c(=O)[nH]c(=O)n2C)n1CC(O)COc1ccc(C)cc1` (centres undefined), 80.6%; under `Cn1cccc1C(=O)NC(=O)CSc1nc2cc(Cl)c[nH]c-2n1`, 104%.
Next, `CC(C)(C)C(O)CN\1C2=CC=CC=C2N3CC/N=C13` (centres undefined): 68%; `CC1=CC=C(C=C1)[S](=O)(=O)N2\C=C/C3=CC=CC=C3C2C#N` (centres undefined): 97.3%; `COc1ccc(CN(C)C(=O)c2cc(Br)ccc2F)c(OC)c1OC`: 102%.
With `CCC(C)[C@H](N)c1nnc(SCc2ccc(Cl)c(Cl)c2)o1` (some centres undefined), the growth was 98%.
Compound `COc1ccc(-c2ccc3c(N)c(C(=O)NC(C)C)sc3n2)cc1OC` yielded a growth of 109%.
Next, `CCOC(=O)c1c(S(=O)(=O)NCC(=O)Nc2nc3ccc(Cl)cc3s2)c(C)n(C)c1C`: 95.1%; `Fc1ccc(-c2ccc(NCCc3cccs3)nn2)cc1`: 90.9%.
Under `Cc1ccc(-c2csc(NC(=O)C(C)C)c2C(=O)O)c(C)c1` stands 101%.
Under `O=C(CCNc1nc(Cl)nc2nc[nH]c12)NCCc1c[nH]cn1` stands 105%.
The compound `Cc1cc(C(=O)O)cc(S(=O)(=O)Nc2ccccc2OC(F)F)c1C` displayed a growth of 102%.
Under `Cc1nc2ccccc2n1CCNC(=O)c1ccccc1Cl` stands 101%; under `COC(=O)CNC(=O)CSc1nc(C2CC2)n(-c2ccccc2)n1`, 84.1%.

The record behind these values is the supplement of paper PMC8007513.
